Source: publication PMC6450621, “Changes of drug pharmacokinetics mediated by downregulation of kidney organic cation transporters Mate1 and Oct2 in a rat model of hyperuricemia” (PLoS ONE, 2019)

Experiment: Kidney function markers (plasma BUN and creatinine) on Day 10 in control and hyperuricemic rats
Assay type: in vivo, rat

## CN1CC(=O)NC1=N [Creatinine, creatinine]
Control rats, Day 10, individual rat
  Plasma Creatinine: 13.0 µM and 12.5 µM and 12.8 µM
Control rats, Day 10, mean
  Plasma Creatinine: 12.8 µM
Hyperuricemic rats, Day 10, individual rat
  Plasma Creatinine: 49.9 µM and 42.8 µM and 29.5 µM and 18.0 µM and 31.8 µM and 29.9 µM and 32.9 µM
Hyperuricemic rats, Day 10, mean
  Plasma Creatinine: 33.6 µM

“And” between values parts separate entries of the source, which are not always exact repeats. Equal entries are not always repeated.
